Measurements reported in patent US20150098947A1 (RESEARCH DEVELOPMENT FOUNDATION, published 2015).
These are yes or no findings as the source states them, for the method shown. Some entries that bind do so weakly or less than the wild type. For part of these data: Sequences can lack the tags named with a protein.

T1: human Olfml3-FLAG (human, UniProt Q9NRN5 22-406, limits assumed)
T1 construct: Screening antigen of the hybridoma ELISA; the tag is written last only by convention; not shown: FLAG tag
T1 sequence (looked up): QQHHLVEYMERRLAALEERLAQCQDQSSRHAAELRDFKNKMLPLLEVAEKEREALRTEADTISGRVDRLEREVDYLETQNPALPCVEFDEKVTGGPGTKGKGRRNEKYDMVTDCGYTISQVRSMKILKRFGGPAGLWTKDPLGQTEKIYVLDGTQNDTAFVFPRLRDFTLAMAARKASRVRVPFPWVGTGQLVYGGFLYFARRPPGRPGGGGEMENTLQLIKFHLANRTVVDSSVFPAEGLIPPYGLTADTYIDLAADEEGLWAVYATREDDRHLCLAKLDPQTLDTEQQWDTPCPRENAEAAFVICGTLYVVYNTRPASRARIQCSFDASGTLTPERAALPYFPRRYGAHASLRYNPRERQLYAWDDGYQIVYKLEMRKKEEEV

T2: recombinant soluble Olfml-3 protein (UniProt Q9NRN5)
T2 sequence (looked up): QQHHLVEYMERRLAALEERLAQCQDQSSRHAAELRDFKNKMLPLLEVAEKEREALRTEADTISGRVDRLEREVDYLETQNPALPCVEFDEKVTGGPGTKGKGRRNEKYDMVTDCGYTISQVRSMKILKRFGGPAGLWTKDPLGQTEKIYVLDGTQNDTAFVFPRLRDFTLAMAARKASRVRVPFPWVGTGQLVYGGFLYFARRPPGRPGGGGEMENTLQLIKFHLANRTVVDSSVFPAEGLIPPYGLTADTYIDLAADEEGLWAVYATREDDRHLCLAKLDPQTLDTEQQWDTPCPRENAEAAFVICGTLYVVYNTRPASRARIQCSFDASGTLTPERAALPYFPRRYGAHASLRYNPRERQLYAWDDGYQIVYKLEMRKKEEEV


Experiments:
human Olfml3-FLAG = target: T1, human Olfml3-FLAG; experiment: hybridoma screening ELISA
Description: The inventors produced a panel of monoclonal antibodies against a recombinant Olfml-3 protein. Three antibodies against human Olfml3 were generated using standard techniques by injecting simultaneously two 14-aa long peptides comprising epitopes in the coiled-coil (peptide A, 86-99 aa: […]; SEQ ID NO: 5) and the olfactomedin-like domains (peptide B, 390-403 aa: […]; SEQ ID NO: 6) as immunogens in rats (Aurrand-Lions et al., 1996). Briefly, human Olfml3 peptides A and B coupled to 100 μg KLH carrier protein (keyhole limpet hemocyanin, Pierce) and mixed with adjuvant 56322 (Sigma), were used to immunize female Wister rats. In total, three injections were performed every 9 days. Two days after a final s.c. injection of human Olfml3 peptides, blasts from draining lymph nodes were fused to Sp2/0 cells, and hybridomas were selected in HAT-containing medium (Life Technologies). Growing clones were screened by ELISA for the production of monoclonal antibodies recognizing specifically human Olfml3-FLAG. Positive clones were subcloned, rescreened, and further tested. Antibodies were purified on protein G-Sepharose columns (GE HealthCare) according to the manufacturer instructions. Two Olfml3-binding antibodies, 46A9BO and 9F8BO, are of IgG2b isotype subclass and one, Z14A7, is of IgG2c isotype subclass. The 46A9BO and 9F8BO monoclonal antibodies were used for in vivo tumor graft models.

[1] = target: T2, recombinant soluble Olfml-3 protein; experiment: ELISA

Row | binding (human Olfml3-FLAG) | binding [1] | Binder
1 | binds | – | 9F8BO monoclonal antibody (antibody, IgG2b, V domains shown) VH: QVQLKESGPGLVQPSQTLSLTCTVSGFSLTRNNVHWVRQPPGKGLEWMGRMRYNGDTSYNSALKSRLSISRDTSKNQVFLKMNSLQIDDTGTYYCSREGYYDGTYYPDYWGQGVMVTVSS VL: TSYELIQPPSASVTLENTVSITCSGDELSNKYAHWYQQKPDKTILEVMYKDSERPSGISDRFSGSSSGTTAILTIRDAQAEDEADYYCLSTYSDDDLPVFGGGTKLTVL
2 | – | binds | 46A9BO monoclonal antibody (glycosylated) (antibody, IgG2b, V domains shown, also called mAb 2; anti-Olfml-3B) VH: AVHLVESGGGLVQPKESLKISCAASGFTFSNAAMYWVRQAPGKGLEWVARIRTKPNDYATYYVDSVKGRFTISRDDSQSMVYLQMDNLKTEDTAMYYCTAFTEPDYWGQGVMVTVSS VL: LIQPPSASVTLGSTVSLTCVGDELSKTYAHWYQQKPDKTIVSVIYKDSERPSGISDRFSGSSSGTTATLTIHGTLAEDEADYYCLSTYSDDNLPVFGGGTKLTVL
3 | – | binds | deglycosylated 46A9BO antibody (antibody, V domains shown, Same rat IgG2b antibody as 46A9BO after deglycosylation; also called 46A9BO (deglycosylated)) VH: AVHLVESGGGLVQPKESLKISCAASGFTFSNAAMYWVRQAPGKGLEWVARIRTKPNDYATYYVDSVKGRFTISRDDSQSMVYLQMDNLKTEDTAMYYCTAFTEPDYWGQGVMVTVSS VL: LIQPPSASVTLGSTVSLTCVGDELSKTYAHWYQQKPDKTIVSVIYKDSERPSGISDRFSGSSSGTTATLTIHGTLAEDEADYYCLSTYSDDNLPVFGGGTKLTVL
